For assay [1], the target named is StrepII-tagged UFM1 ΔVGSC (inactive mutant lacking the 4 C-terminal residues) (human) (UniProt P61960). The assay can be described thus: co-IP.
Assay [2] addresses N-terminally StrepII-tagged UFM1 (ubiquitin-fold modifier 1), wildtype (human) (UniProt P61960). Briefly: co-IP.

Amino acid sequences for entries named in this document (tags omitted). A change or cut given only in a name is not applied to a line headed by its entry. Chains listed by the source or under a name are the forms on record and can include a tag or linker. Residues count along the entry.
UniProt P61960: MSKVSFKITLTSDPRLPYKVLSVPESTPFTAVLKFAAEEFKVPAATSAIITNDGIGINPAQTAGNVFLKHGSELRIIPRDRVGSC
StrepII-tagged UFM1 ΔVGSC (inactive mutant lacking the 4 C-terminal residues): residues 1-81 of P61960
UniProt Q9GZZ9: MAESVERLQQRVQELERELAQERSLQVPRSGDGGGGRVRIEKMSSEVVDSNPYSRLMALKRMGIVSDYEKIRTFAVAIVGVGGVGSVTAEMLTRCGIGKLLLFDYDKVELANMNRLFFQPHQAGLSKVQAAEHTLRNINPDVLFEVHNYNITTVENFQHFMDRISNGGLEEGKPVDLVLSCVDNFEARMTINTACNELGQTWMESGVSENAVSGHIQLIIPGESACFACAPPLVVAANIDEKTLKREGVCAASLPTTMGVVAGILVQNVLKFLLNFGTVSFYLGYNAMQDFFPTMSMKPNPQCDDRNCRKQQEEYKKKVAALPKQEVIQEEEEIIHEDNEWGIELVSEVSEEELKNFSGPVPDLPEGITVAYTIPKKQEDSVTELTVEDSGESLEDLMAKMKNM

These are yes or no findings as the source states them, for the method shown. In cells and extracts the contact can be indirect. Some binding calls cover weakened binding; strength is not graded here.

These results are taken from PMC7827699.

Regarding “UBA5, the E1 enzyme of UFM1 (from UniProt Q9GZZ9 1-404)”, the binding result in assay [1] was “no binding”; in assay [2], “binds”.
